For at least one compound, name, drawing or mass did not settle the structure.
Test system: patient-derived AML cells
Assay: Annexin V/7-AAD apoptosis assay in patient-derived AML cells
Type: cell-based, human
Details: AML samples with high HOXA9 and MEIS1 compared to samples with weak MEIS1 expression; 24 h treatment

Row | SMILES | sensitivity to SYK inhibitor (IC50, Annexin V/7-AAD apoptosis assay)
1 | COc1cc(Nc2ncc(F)c(Nc3ccc4c(n3)NC(=O)C(C)(C)O4)n2)cc(OC)c1OC [R406] | more sensitive
2 | NC(=O)c1cnc(N[C@@H]2CCCC[C@@H]2N)nc1Nc1cccc(-n2nccn2)c1 [PRT062607] | more sensitive

From patent US20200032350A1, “COMPANION DIAGNOSTICS FOR LEUKEMIA TREATMENT” (JOHANN WOLFGANG GOETHE-UNIVERSITÄT FRANKFURT AM MAIN, priority 2017, published 2020)
